Reference: the supplement of paper PMC10849652
This is one part of the list.

Amino acid sequences for entries named in this document (tags omitted). A change or cut given only in a name is not applied to a line headed by its entry.
UniProt Q68DU8: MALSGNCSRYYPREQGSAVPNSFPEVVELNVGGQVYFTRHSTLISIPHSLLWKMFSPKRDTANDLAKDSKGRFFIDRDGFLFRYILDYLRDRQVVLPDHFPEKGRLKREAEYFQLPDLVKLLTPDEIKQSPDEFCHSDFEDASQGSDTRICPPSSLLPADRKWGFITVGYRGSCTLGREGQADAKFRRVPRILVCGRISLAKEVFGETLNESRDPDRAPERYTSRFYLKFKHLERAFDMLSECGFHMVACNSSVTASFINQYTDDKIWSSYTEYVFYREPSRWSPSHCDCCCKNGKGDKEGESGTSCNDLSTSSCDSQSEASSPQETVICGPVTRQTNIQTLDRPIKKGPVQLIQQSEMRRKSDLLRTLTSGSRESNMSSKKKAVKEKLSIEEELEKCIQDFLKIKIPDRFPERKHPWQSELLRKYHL
UniProt O60674: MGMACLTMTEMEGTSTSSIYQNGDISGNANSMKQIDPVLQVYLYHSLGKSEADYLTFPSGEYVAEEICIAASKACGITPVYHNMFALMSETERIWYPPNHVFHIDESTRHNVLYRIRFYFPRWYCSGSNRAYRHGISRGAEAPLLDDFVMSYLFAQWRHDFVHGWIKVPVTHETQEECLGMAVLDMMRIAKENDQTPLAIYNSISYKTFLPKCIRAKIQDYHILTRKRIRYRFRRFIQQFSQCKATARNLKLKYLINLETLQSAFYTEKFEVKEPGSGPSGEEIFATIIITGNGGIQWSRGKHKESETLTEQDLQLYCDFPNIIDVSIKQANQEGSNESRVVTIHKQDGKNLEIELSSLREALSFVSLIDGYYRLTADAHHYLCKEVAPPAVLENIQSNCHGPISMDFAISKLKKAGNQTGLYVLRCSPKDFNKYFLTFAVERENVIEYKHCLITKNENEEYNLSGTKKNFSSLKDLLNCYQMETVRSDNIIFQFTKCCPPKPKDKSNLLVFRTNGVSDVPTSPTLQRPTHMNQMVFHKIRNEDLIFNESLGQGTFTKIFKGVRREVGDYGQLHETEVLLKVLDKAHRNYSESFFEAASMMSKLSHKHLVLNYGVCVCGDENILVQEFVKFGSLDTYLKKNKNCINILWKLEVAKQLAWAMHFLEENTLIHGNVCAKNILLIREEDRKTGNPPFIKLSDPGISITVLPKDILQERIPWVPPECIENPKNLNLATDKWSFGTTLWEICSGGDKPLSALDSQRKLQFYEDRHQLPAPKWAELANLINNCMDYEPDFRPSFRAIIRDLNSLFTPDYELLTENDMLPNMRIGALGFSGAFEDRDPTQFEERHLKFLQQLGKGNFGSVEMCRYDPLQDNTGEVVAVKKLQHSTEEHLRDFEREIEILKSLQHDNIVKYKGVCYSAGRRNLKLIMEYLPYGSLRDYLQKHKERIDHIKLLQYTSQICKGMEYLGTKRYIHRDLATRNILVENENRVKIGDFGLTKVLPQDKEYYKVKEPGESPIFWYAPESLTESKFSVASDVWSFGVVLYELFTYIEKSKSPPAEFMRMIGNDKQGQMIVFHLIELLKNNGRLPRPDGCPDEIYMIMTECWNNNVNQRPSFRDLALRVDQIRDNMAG
UniProt Q8WZ19: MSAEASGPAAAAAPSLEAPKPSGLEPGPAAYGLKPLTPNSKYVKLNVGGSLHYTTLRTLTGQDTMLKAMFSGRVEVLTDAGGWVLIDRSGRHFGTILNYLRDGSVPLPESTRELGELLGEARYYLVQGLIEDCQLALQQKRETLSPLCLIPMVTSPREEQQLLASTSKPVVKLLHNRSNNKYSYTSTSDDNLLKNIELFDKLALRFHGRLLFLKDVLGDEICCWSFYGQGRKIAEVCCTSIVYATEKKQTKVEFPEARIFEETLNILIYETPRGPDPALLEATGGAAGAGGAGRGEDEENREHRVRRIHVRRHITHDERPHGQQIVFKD
UniProt P23458: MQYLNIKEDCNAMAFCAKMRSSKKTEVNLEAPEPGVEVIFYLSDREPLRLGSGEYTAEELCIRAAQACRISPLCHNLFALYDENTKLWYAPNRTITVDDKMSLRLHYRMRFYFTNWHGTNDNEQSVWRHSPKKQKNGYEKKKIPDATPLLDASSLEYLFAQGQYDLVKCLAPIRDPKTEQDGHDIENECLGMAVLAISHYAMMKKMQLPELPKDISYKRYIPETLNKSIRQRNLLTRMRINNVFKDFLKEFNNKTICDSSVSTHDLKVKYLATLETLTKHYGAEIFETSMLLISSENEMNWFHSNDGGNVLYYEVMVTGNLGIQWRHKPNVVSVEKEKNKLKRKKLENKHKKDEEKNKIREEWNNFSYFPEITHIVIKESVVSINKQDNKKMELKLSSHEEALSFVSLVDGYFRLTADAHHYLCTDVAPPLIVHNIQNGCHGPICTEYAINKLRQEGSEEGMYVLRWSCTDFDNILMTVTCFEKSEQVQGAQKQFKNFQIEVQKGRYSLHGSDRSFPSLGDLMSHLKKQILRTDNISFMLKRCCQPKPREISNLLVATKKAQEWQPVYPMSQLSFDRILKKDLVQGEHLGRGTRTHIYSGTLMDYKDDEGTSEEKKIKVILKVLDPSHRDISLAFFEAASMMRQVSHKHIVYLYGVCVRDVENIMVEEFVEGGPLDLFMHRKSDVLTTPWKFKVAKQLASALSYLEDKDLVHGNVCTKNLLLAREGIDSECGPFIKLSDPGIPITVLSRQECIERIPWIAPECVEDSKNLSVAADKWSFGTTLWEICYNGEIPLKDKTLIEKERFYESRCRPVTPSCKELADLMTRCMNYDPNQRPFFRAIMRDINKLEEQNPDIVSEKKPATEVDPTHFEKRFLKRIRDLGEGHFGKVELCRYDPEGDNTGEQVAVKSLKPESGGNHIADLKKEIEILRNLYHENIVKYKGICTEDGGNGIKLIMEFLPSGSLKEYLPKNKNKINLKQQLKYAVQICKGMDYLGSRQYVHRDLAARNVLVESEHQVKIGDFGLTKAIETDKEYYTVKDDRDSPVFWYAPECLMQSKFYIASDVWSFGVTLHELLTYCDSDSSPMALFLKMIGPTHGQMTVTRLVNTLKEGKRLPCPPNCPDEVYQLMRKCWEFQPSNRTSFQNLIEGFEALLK
UniProt Q5JSJ4, whole entry, looked up: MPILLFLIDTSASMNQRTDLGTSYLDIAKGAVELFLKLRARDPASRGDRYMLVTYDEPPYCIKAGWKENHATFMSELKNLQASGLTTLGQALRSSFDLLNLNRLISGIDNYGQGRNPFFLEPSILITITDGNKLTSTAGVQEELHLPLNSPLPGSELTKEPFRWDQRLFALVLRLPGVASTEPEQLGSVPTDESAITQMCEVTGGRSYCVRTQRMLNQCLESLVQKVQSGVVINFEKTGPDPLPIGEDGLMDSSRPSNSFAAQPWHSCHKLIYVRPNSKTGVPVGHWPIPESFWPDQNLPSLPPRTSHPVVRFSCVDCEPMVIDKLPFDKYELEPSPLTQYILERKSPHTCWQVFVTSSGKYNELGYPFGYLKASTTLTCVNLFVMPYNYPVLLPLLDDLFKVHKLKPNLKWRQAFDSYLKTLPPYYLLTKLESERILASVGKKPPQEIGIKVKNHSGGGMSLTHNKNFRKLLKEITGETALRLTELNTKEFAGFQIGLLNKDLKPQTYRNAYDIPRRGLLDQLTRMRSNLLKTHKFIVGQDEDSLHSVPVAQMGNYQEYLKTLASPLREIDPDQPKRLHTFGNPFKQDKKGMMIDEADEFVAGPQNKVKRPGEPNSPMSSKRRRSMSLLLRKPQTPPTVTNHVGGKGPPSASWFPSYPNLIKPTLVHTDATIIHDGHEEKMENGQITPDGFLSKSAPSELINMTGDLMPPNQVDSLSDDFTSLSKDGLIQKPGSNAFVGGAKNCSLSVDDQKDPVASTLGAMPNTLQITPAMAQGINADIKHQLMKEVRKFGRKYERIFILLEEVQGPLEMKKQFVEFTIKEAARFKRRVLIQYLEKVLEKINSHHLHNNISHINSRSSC

How the values were obtained:
Assay in all cases: log2 fold change, soluble protein after heating vs DMSO (PISA); higher = thermal stabilisation; K562 lysate, 10 uM; active = over 0.2 and 3.5 SD of the protein, either way, in both replicates (recomputed)
crizotinib = compound: C[C@@H](Oc1cc(-c2cnn(C3CCNCC3)c2)cnc1N)c1c(Cl)ccc(F)c1Cl [crizotinib]
How it was run: (§1)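 A 30 min treatment with 10 μM compound was applied to crude K562 extract at 1 mg/mL protein in PBS pH 7.4 with 1 mM MgCl2. Heating for 3 min spanned 48°C-58°C, after which aliquots were pooled, adjusted to 0.5% NP-40 at 4°C and spun at 21,000xg for 90 min. TMTpro 16plex LC-MS/MS of the supernatant, with channel sums equalised, gave values recorded as log-two fold change in thermal stability against solvent controls, from duplicates.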

doramapimod = compound: Cc1ccc(-n2nc(C(C)(C)C)cc2NC(=O)Nc2ccc(OCCN3CCOCC3)c3ccccc23)cc1 [doramapimod]
How it was run: as §1

quisinostat = compound: Cn1cc(CNCC2CCN(c3ncc(C(=O)NO)cn3)CC2)c2ccccc21 [quisinostat]
How it was run: as §1

[1] = compound: NC(=O)Nc1cc(-c2cccc(F)c2)sc1C(=O)N[C@H]1CCCNC1
How it was run: as §1

[2] = compound: C[C@H](C1=CC=C(C=C1)C(=O)NC2=C3C=CNC3=NC=C2)N
How it was run: as §1

duvelisib = compound: C[C@H](Nc1ncnc2nc[nH]c12)c1cc2cccc(Cl)c2c(=O)n1-c1ccccc1 [duvelisib]
How it was run: as §1

gandotinib = compound: Cc1cc(Nc2cc(CN3CCOCC3)c3nc(C)c(Cc4ccc(Cl)cc4F)n3n2)n[nH]1 [gandotinib]
How it was run: as §1

[3] = compound: Cc1cccc(CC(=O)N2CCc3c2ccc(-c2cn(C)c4ncnc(N)c24)c3F)n1
How it was run: as §1

nilotinib = compound: Cc1cn(-c2cc(NC(=O)c3ccc(C)c(Nc4nccc(-c5cccnc5)n4)c3)cc(C(F)(F)F)c2)cn1 [nilotinib]
How it was run: as §1

[4] = compound: Cc1nc(Nc2n[nH]c3c2CN(C(=O)N[C@H](CN(C)C)c2ccccc2)C3(C)C)c2sccc2n1
How it was run: as §1

dasatinib = compound: Cc1nc(Nc2ncc(C(=O)Nc3c(C)cccc3Cl)s2)cc(N2CCN(CCO)CC2)n1 [dasatinib]
How it was run: as §1

[5] = compound: Cc1ncc(-c2ccnc(Nc3ccc(S(C)(=O)=O)cc3)n2)n1C(C)C
How it was run: as §1

[6] = compound: Cn1cc(-c2ccc3c(c2)CCN3C(=O)Cc2cccc(C(F)(F)F)c2)c2c(N)ncnc21
How it was run: as §1

tipifarnib = compound: Cn1cncc1[C@@](N)(c1ccc(Cl)cc1)c1ccc2c(c1)c(-c1cccc(Cl)c1)cc(=O)n2C [tipifarnib]
How it was run: as §1

[7] = compound: NC1(c2ccc(-c3nc4ccn5c(=O)[nH]nc5c4cc3-c3ccccc3)cc2)CCC1
How it was run: as §1

pictilisib = compound: CS(=O)(=O)N1CCN(Cc2cc3nc(-c4cccc5[nH]ncc45)nc(N4CCOCC4)c3s2)CC1 [pictilisib]
How it was run: as §1

bafetinib = compound: Cc1ccc(NC(=O)c2ccc(CN3CC[C@H](N(C)C)C3)c(C(F)(F)F)c2)cc1Nc1nccc(-c2cncnc2)n1 [bafetinib]
How it was run: as §1

tozasertib = compound: Cc1cc(Nc2cc(N3CCN(C)CC3)nc(Sc3ccc(NC(=O)C4CC4)cc3)n2)n[nH]1 [tozasertib]
How it was run: as §1

lapatinib = compound: CS(=O)(=O)CCNCc1ccc(-c2ccc3ncnc(Nc4ccc(OCc5cccc(F)c5)c(Cl)c4)c3c2)o1 [lapatinib]
How it was run: as §1

[8] = compound: NC(=O)c1cnc(N[C@@H]2CCCC[C@@H]2N)nc1Nc1cccc(-n2nccn2)c1
How it was run: as §1

Measured: log2 fold change

KCTD16 (UniProt Q68DU8)
inactive: crizotinib -0.057 | doramapimod 0.046 | quisinostat -0.149 | [1] -0.033

JAK2 (UniProt O60674)
inactive: [2] -0.007 | duvelisib -0.049 | gandotinib -0.075 | [3] 0.135 | nilotinib 0.196 | [4] 0.071 | dasatinib -0.14 | [5] -0.064 | [6] -0.011 | tipifarnib 0.144 | [7] 0.095

KCTD13 (UniProt Q8WZ19)
inactive: pictilisib -0.04 | crizotinib -0.056 | duvelisib -0.082 | doramapimod 0.071 | bafetinib 0.055 | nilotinib -0.042 | [4] 0.093 | dasatinib 0.103 | [5] -0.07 | [6] 0.028 | quisinostat -0.087 | tipifarnib 0.01 | [1] 0 | [7] 0.056

NA (UniProt J3KR12)
inactive: [2] -0.113 | gandotinib 0.226 | tozasertib 0.394 | [3] 1.01

JAK1 (UniProt P23458)
inactive: pictilisib -0.048 | crizotinib 0.029 | tozasertib -0.188 | doramapimod 0.032 | bafetinib 0.117 | quisinostat -0.087 | [1] 0.093

INTS6L (UniProt Q5JSJ4)
inactive: lapatinib -0.01 | [2] -0.114 | duvelisib 0.031 | gandotinib -0.164 | [3] -0.293 | dasatinib -0.033 | [6] 0.224 | [8] 0.097 | [7] -0.075
